In PMC6721811:
No constants are given. Whether binding was seen depends on the method and setting. In cells and extracts the contact can be indirect. Some results given as binding are weak or reduced against the parent protein; the word gives no strength.

By UniProt entry, the sequences of proteins in these tests, tags left out. Residues count along the entry.
UniProt O14763, residues 56-440: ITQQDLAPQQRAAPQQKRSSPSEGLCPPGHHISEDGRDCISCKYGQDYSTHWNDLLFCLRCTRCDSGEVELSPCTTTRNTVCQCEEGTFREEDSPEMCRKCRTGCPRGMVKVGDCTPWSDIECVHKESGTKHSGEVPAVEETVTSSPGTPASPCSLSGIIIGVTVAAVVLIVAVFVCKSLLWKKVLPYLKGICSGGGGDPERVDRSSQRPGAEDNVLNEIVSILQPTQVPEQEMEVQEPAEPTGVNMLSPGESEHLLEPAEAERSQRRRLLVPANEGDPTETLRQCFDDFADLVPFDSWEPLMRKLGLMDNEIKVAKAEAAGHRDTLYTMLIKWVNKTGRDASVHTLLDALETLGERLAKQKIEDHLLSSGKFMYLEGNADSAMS
UniProt O00220, residues 24-468: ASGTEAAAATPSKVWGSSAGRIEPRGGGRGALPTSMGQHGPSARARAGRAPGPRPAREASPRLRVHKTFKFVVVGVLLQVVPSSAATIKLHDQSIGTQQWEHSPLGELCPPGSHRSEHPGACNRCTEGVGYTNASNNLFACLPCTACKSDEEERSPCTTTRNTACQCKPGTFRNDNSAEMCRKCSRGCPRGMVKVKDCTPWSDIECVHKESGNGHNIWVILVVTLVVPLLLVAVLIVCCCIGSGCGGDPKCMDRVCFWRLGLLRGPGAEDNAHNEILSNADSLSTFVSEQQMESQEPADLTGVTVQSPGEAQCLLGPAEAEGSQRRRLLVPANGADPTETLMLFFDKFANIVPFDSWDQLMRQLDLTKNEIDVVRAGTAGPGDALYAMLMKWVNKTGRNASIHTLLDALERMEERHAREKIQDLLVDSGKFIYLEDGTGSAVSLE
UniProt O14980: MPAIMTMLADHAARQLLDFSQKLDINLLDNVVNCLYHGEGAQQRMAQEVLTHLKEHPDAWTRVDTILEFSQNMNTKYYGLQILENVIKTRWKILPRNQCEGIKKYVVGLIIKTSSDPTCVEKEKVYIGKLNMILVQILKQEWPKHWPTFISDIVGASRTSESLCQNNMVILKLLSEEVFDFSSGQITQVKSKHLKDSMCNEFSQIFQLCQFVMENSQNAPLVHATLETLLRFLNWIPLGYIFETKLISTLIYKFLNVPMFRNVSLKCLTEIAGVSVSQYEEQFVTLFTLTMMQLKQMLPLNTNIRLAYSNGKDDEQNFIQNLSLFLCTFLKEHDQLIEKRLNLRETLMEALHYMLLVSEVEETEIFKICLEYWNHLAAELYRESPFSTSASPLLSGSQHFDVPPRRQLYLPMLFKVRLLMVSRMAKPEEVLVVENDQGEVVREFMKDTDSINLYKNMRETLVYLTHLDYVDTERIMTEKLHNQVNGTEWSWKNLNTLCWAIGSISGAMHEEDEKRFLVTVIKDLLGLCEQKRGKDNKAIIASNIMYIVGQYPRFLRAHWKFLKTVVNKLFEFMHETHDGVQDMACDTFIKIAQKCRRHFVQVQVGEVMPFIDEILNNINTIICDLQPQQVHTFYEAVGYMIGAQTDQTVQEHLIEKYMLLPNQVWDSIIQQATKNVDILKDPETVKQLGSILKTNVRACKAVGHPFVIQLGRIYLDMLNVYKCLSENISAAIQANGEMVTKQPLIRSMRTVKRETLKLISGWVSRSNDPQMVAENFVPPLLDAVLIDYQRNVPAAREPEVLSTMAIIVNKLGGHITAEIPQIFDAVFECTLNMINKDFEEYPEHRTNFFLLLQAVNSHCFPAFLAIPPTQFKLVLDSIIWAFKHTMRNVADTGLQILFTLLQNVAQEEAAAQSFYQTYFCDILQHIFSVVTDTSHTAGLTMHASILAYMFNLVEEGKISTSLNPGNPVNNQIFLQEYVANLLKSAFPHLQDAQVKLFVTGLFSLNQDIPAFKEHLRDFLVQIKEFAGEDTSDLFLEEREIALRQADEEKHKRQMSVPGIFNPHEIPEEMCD

Legend:
[1] = target: nuclear TRAIL-R2 (human (endogenous in Panc89 and Panc-1)) (UniProt O14763); assay: co-IP; immunoprecipitation of TRAIL-R1 (Mapatumumab) or TRAIL-R2 (Lexatumumab) from nuclear extracts (1.5 mg/IP; 30 mM Tris-HCl pH 7.5, 120 mM NaCl, 1% glycerol, 0.5% NP-40) of PDAC cell lines, with RNasin or RNase A for 1 h at 37 °C; Western blot for CRM-1
[2] = target: nuclear TRAIL-R1 (human (endogenous in Panc89 and Panc-1)) (UniProt O00220); assay: as above

binding [1]: binds
binding [2]: no binding
Substance: Exportin 1 (XPO 1)/chromosome region maintenance 1-homolog (CRM-1) (from UniProt O14980 1-1071)
